Binding data for one substance are collected here from PMC8493742.

Amino acid sequences for entries named in this document (tags omitted).
UniProt Q13887: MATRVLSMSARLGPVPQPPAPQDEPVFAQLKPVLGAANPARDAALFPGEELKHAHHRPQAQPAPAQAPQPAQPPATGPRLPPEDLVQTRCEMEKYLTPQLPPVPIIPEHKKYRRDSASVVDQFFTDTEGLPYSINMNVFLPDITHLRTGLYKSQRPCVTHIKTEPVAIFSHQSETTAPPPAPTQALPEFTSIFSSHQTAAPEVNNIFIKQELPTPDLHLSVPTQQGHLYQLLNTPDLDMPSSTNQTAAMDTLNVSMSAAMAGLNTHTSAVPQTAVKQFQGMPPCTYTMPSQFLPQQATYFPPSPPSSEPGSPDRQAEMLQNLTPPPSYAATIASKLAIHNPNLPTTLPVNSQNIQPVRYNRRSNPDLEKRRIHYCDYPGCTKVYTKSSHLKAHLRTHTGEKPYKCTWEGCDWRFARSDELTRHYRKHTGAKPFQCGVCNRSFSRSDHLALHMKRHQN
UniProt P06748: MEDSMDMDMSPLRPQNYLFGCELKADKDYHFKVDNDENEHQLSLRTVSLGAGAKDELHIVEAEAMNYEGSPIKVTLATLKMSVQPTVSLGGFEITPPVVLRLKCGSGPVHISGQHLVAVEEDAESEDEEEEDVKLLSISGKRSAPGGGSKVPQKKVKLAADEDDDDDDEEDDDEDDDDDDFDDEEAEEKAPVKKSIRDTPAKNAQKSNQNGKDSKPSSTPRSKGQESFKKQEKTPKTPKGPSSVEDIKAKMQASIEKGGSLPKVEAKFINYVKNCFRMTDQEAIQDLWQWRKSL

Experiment [1] addresses WW Domain-Containing Protein 1 (WWP1) (human (endogenous in OCI-AML3)) (UniProt Q9H0M0). In words: co-IP; endogenous proteins in sonicated cell lysates in IP buffer (20 mM Tris-Cl, 150 mM NaCl, 1 mM EDTA, 1 mM EGTA, 1% Triton X-100, pH 7.5); specific antibodies or normal IgG with protein A/G beads overnight at 4 °C; western blot; also in cells with shNPM1, shHOTAIRM1 or HOTAIRM1 overexpression.

The target of experiment [2] is Kruppel-like factor 5 (KLF5) (human (endogenous in OCI-AML3)) (UniProt Q13887). Described as above.

Results are given in words; binding and its absence hold for the method and conditions named. In cells and extracts the contact can be indirect.

In the case of “wild-type nucleophosmin (NPM1-wt) (from UniProt P06748 1-294)”, the binding result in experiment [1] and in experiment [2] was “no binding” throughout.
